This list was built around the results that the source calls inconclusive (neither active nor inactive); the mix of calls is not that of the screen. For part of these data: Where the call is inconclusive, the potency comes from a doubtful curve fit. Where a structure was tested more than once in an assay, its records may differ in their call. Active and inactive are the calls of the source. How the source made its calls: active means hit-call score of the fitted dose curve at least 0.9, where 1 is the maximum; inconclusive means response in the unintended direction; inactive means score below 0.9. Peptide text beside a SMILES is read from it.
What was measured:
[1] = target: Bile acid receptor (Homo sapiens) (UniProt Q96RI1); experiment: OT_FXR_FXRSRC1_0480: Odyssey Thera (OT) 8-hour HEK293T Protein-Complementation Assay for Farnesoid X receptor/SRC-1 Co-activator (AID 2283383)
Outline: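 Human kidney HEK293T cells carried FXR/SRC-1 fragment-complementation constructs. Compounds were added and incubated 8 h. Reporter reassembly upon receptor–co-activator interaction was then quantified by fluorescence, with curves fitted in the positive direction relative to DMSO.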

By UniProt entry, the sequences of proteins in these tests, tags left out. Where a name states a change or a piece, a line headed by the entry shows the natural chain unless it says otherwise.
UniProt Q96RI1: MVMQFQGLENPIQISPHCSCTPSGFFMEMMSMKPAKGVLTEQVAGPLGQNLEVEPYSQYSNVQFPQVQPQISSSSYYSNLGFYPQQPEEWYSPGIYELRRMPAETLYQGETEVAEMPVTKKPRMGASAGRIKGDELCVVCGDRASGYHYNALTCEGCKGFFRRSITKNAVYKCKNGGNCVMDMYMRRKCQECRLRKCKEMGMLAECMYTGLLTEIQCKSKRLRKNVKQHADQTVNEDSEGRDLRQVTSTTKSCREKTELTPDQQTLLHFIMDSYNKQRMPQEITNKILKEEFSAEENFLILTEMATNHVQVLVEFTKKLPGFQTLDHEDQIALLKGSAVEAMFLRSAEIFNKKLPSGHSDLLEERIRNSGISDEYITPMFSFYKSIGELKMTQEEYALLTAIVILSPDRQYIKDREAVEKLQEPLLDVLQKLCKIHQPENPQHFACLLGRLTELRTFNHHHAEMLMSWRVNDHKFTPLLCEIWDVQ
UniProt Q92731, whole entry, looked up: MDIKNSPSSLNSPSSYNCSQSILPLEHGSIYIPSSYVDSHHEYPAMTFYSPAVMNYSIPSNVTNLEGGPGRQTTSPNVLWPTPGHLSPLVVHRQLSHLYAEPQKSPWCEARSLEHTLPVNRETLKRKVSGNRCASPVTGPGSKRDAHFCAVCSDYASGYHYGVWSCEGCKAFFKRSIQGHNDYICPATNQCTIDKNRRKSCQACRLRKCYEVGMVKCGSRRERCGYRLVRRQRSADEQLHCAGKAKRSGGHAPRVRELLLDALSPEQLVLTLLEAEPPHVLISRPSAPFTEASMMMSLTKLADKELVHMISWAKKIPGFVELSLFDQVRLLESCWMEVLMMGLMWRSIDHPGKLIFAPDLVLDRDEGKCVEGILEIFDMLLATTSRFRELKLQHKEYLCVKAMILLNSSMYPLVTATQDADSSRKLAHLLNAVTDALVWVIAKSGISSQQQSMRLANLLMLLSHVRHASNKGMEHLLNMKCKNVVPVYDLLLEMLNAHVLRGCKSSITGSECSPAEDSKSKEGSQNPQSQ
UniProt P21709: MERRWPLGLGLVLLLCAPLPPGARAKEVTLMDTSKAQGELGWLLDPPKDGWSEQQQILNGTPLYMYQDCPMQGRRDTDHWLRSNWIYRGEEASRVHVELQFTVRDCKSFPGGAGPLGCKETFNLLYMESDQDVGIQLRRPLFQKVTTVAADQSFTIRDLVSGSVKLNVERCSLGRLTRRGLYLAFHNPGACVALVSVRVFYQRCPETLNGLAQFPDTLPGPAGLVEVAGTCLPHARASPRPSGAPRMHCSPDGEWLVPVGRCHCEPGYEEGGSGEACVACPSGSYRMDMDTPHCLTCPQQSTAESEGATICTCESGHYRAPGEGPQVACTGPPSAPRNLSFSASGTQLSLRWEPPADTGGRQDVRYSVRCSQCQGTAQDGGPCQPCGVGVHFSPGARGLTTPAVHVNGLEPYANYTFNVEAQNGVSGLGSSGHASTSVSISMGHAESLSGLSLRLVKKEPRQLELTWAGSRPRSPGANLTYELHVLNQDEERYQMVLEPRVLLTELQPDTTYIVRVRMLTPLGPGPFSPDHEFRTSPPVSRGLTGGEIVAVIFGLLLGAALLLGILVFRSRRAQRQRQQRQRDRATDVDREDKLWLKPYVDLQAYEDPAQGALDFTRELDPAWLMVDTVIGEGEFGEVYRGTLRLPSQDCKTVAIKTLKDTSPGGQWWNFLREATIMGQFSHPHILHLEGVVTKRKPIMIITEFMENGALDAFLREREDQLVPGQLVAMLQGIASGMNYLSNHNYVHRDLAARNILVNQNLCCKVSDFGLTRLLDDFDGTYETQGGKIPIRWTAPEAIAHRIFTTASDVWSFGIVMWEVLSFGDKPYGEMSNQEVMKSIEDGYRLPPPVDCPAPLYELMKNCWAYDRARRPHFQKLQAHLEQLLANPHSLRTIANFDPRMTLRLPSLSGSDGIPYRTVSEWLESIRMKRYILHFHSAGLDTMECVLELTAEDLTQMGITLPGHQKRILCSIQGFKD
UniProt P37231: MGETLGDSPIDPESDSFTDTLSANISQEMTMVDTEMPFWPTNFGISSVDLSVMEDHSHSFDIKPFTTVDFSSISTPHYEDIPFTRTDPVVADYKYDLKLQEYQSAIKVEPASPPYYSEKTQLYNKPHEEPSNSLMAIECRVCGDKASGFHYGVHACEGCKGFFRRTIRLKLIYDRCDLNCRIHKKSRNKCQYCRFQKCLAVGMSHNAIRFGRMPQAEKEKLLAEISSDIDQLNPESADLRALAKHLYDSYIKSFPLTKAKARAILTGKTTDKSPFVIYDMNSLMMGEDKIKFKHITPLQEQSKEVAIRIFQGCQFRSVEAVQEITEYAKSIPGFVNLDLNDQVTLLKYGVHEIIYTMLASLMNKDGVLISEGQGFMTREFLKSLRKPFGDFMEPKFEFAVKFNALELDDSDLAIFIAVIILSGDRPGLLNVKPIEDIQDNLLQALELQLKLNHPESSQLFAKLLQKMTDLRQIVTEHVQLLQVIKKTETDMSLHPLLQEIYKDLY

[2] = target: Bile acid receptor (Homo sapiens) (UniProt Q96RI1); experiment: OT_FXR_FXRSRC1_1440: Odyssey Thera (OT) 24-hour HEK293T Protein-Complementation Assay for Farnesoid X receptor/SRC-1 Co-activator (AID 2283384)
Outline: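 Compounds are applied to human kidney HEK293T cells expressing bait and prey fused to reporter protein fragments; after 24 h, reconstituted reporter fluorescence is measured. Activity is fitted as signal gain over DMSO.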

[3] = Tanguay_ZF_120hpf_OTIC_legacy: (Legacy) Oregon State University Tanguay Lab 120 Hour Post-fertilization zebrafish Assay for Otic Vesicle Malformation (AID 2283639)
Outline: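 Embryos from 5D wild-type adults exposed in plates; DMSO 0.64% v/v final. Sealed, light-protected, 28C, static to 120 hpf. Otic vesicle malformation recorded as binary endpoint; gain-of-signal fitted vs DMSO.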

[4] = Tanguay_ZF_120hpf_BRAI_legacy: (Legacy) Oregon State University Tanguay Lab 120 Hour Post-fertilization zebrafish Assay for Brain Malformation (AID 2283641)
Outline: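 Read-out: binary brain morphology call at 120 hpf (brightfield), fitted in gain-of-signal direction vs DMSO. Wild-type Tropical 5D embryos, static exposure, 28C, 0.64% DMSO final; 5uM trimethyltin chloride as positive control.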

[5] = Tanguay_ZF_120hpf_SOMI_legacy: (Legacy) Oregon State University Tanguay Lab 120 Hour Post-fertilization zebrafish Assay for Somite Malformation (AID 2283647)
Outline: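 Binary brightfield scoring of somite defects at 120 hpf in 5D wild-type larvae; one dechorionated embryo per well, static exposure from 6 hpf, 28C, sealed and dark. Final DMSO 0.64%; trimethyltin chloride 5uM positive control.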

[6] = Tanguay_ZF_120hpf_CIRC_legacy: (Legacy) Oregon State University Tanguay Lab 120 Hour Post-fertilization zebrafish Assay for Circulatory Malformation (AID 2283651)
Outline: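 Read-out: presence or absence of circulatory malformation at 120 hpf, scored by brightfield microscopy, fitted in the gain-of-signal direction against DMSO baseline. Wild-type 5D larvae were exposed from 6 hpf after enzymatic chorion removal.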

[7] = STM_H9_OrnCyssISnorm_ratio: Stemina devTOX quickPredict H9 human embryonic stem cell (hESC)-based Assay for Ornithine (ORN):Cystine (CYSS) Ratio (AID 2283714)
Outline: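 Undifferentiated H9 hESCs exposed 72 h, media and compound replaced every 24 h; final 24-h conditioned media deproteinized and analysed by UPLC-HRMS against C13 spike-ins. Value is the internal-standard-normalized ORN/CYSS ratio versus 0.1% DMSO.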

[8] = ACEA_AR_antagonist_AUC_viability: ACEA Biosciences xCELLigence Real-Time Cell Analysis on Androgen Receptor Antagonism for Viability (AID 2283776);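 further: 22Rv1 human prostate cancer cells growing on impedance electrode plates; area under impedance growth curve at 80 h after dosing as viability; hits lower the growth signal relative to DMSO meaning cytotoxicity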
Outline: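 Viability endpoint from label-free cell-index monitoring: 22Rv1 cultures treated with an eight-point 1:4 dilution series starting at 100 uM final, AUC at 80 h fitted against DMSO.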

[9] = target: Estrogen receptor beta (Homo sapiens) (UniProt Q92731); experiment: OT_ER_ERbERb_0480: Odyssey Thera (OT) 8-hour HEK293T Protein-Complementation Assay for Estrogen Receptor-beta/-beta Homodimer (AID 2283357);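 further: active means signal gain over DMSO baseline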
Outline: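 Fluorescence intensity, nuclear for agonists and nuclear plus cytoplasmic for antagonists, was quantified by laser scanning cytometry versus vehicle after 8 h treatment. The cells were HEK293T stably carrying ER beta LBD fragment-complementation partners.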

[10] = Tanguay_ZF_120hpf_EYE_legacy: (Legacy) Oregon State University Tanguay Lab 120 Hour Post-fertilization zebrafish Assay for Eye Malformation (AID 2283636)
Outline: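 Dechorionated Tropical 5D zebrafish embryos, one per well from 6 hpf, static exposure to 120 hpf at 28C, 0.64% DMSO. Eye malformation scored present/absent by brightfield; dead embryos not scored.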

[11] = Tanguay_ZF_120hpf_SWIM_legacy: (Legacy) Oregon State University Tanguay Lab 120 Hour Post-fertilization zebrafish Assay for Swim Bladder Malformation (AID 2283654);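 further: swim bladder malformation in each larva scored yes or no under brightfield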
Outline: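 Dechorionated wild-type Tropical 5D zebrafish embryos, one per well from 6 hpf, were statically exposed at 28C until 120 hpf in 0.64% DMSO. Swim bladder malformation scored as present/absent by brightfield microscopy; not scored in dead larvae.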

[12] = Tanguay_ZF_120hpf_TRUN_legacy: (Legacy) Oregon State University Tanguay Lab 120 Hour Post-fertilization zebrafish Assay for Truncated Body (AID 2283655)
Outline: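 Whole-embryo zebrafish screen: dechorionated 5D embryos, static exposure 6–120 hpf, 28C, sealed foil-covered plates, 0.64% DMSO. Binary truncation call; gain of signal versus DMSO baseline.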

[13] = CCTE_Deisenroth_AIME_384WELL_CTox_Active: Cytotoxicity Assessment (CTOX) in CCTE's 384-well Estrogen Receptor Transactivation Assay with AIME metabolic competence (metabolism positive), Deisenroth Lab (AID 2284037);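 further: chemicals first conditioned 2 h by alginate-bound induced rat liver S9 before cells; activity means signal loss indicating cell death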
Outline: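 Chemicals pre-incubated 2 hours with alginate-immobilised phenobarbital/beta-naphthoflavone-induced male Sprague Dawley rat liver S9, then conditioned medium applied 24 hour to VM7Luc4E2 cells. Viability by fluorogenic protease substrate; 10-point series 0.002 - 200 uM.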

[14] = CCTE_Deisenroth_AIME_384WELL_CTox_Inactive: Cytotoxicity Assessment (CTOX) in CCTE's 384-well Estrogen Receptor Transactivation Assay without AIME metabolic competence (metabolism negative), Deisenroth Lab (AID 2284039);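 further: cell viability via live-cell protease substrate cleaved to fluorescent probe; cells exposed 24 h to medium preincubated 2 h with alginate-water beads without S9; loss of fluorescence signal means loss of viability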
Outline: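 Fluorescence from a live-cell protease substrate, read after 24 h in VM7Luc4E2 cells, indicated viability. Test medium came from a 2 h AIME step without hepatic S9 (alginate-water microspheres); concentrations spanned 0.002 - 200 uM, single technical replicate per run.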

[15] = target: human Ephrin type-A Receptor 1 (EphA1), EPHA1 (gene 2041) (UniProt P21709); experiment: NVS_ENZ_hEphA1: NovaScreen (NVS) Enzymatic Assay for human Ephrin type-A Receptor 1 (EphA1) (AID 2283158);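 further: activity is signal loss versus DMSO meaning EphA1 kinase inhibition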
Outline: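 Recombinant kinase, fluorescent substrate, mobility-shift separation, fluorescence read at 1 h. Single-point duplicates at 25 uM; hits (e.g., ≥30% inhibition) run singleton concentration-response, max 50 uM. DMSO = negative control/baseline.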

[16] = Tanguay_ZF_120hpf_YSE_legacy: (Legacy) Oregon State University Tanguay Lab 120 Hour Post-fertilization zebrafish Assay for Yolk Sac Edema (AID 2283634);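 further: actives raise the incidence of yolk sac edema above the DMSO baseline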
Outline: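 Binary brightfield scoring of yolk sac edema at 120 hpf; DMSO baseline, gain-of-signal fitting. Dechorionated 5D larvae, one per well, static exposure 6–120 hpf, 28C, 0.64% DMSO. Dead embryos not scored.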

[17] = Tanguay_ZF_120hpf_TR_legacy: (Legacy) Oregon State University Tanguay Lab 120 Hour Post-fertilization zebrafish Assay for Touch Response (AID 2283667)
Outline: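 Tropical 5D wild-type zebrafish embryos statically exposed to 120 hpf at 28°C, sealed and dark-covered, 0.64% DMSO final; touch response scored as present/absent by brightfield microscopy at 120 hpf. Trimethyltin chloride 5 uM positive control; dead embryos not scored.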

[18] = Tanguay_ZF_120hpf_NC_legacy: (Legacy) Oregon State University Tanguay Lab 120 Hour Post-fertilization zebrafish Assay for Notochord and Tail Malformation (AID 2283656)
Outline: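 Dechorionated Tropical 5D wild-type zebrafish embryos, one per well from 6 hpf, statically exposed to 120 hpf at 28C in 0.64% DMSO final. Notochord distortion scored present/absent by brightfield; dead embryos excluded.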

[19] = target: Peroxisome proliferator-activated receptor gamma (Homo sapiens) (UniProt P37231); experiment: NVS_NR_hPPARg: NovaScreen (NVS) Nuclear Receptor Binding Assay for human Peroxisome Proliferator-activated Receptor gamma (PPARg) (AID 2283370)
Outline: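 FP read-out, 2 h post-dose, cell-free extracted receptor protein. Signal loss vs DMSO negative control = binding activity. Single-conc duplicate HTS at 25 uM; concentration-response follow-up for actives.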

## CC(CO)OC(C)CO (stereo unspecified) (tested in a mixture with another compound)
[1]
  AC50: inconclusive: 18.5 µM
[2]
  outcome: inactive
[3]
  outcome: inactive
[4]
  AC50: inconclusive: 99.5 µM
[5]
  AC50: inconclusive: 43.6 µM
[6]
  AC50: inconclusive: 2.02 µM
[7]
  AC50: inconclusive: 0.0232 µM
[8]
  AC50: inconclusive: 0.0917 µM

## c1ccc(Nc2ccccc2)cc1
[9]
  AC50: active: 50.8 µM
[10]
  AC50: inconclusive: 195 µM
[3]
  AC50: inconclusive: 202 µM
[4]
  AC50: active: 10.2 µM
[6]
  AC50: inconclusive: 17.6 µM
[11]
  outcome: inactive
[12]
  AC50: inconclusive: 1.57 µM
[8]
  outcome: inactive
[13]
  AC50: inconclusive: 0.00202 µM

## COC(=O)[C@H](Cc1ccccc1)NC(=O)[C@@H](N)CC(=O)O (HELM PEPTIDE1{D.F.[CO[*:1]]}$$$$V2.0)
[1]
  outcome: inactive
[2]
  AC50: inconclusive: 14.9 µM
[14]
  AC50: inconclusive: 0.0002 µM

## CCCCC[C@H](O)CC(=O)CCc1ccc(O)c(OC)c1
[8]
  AC50: inconclusive: 0.0834 µM

## CCCCCCCC/C=C\CCCCCCCC(=O)OC[C@@H](O)[C@H]1OC[C@H](O)[C@H]1O
[15]
  AC50: inconclusive: 25 µM
[16]
  AC50: inconclusive: 37.8 µM
[4]
  AC50: inconclusive: 200 µM
[12]
  AC50: inconclusive: 104 µM
[17]
  outcome: inactive
[8]
  AC50: inconclusive: 0.000639 µM

## CCN(CC)c1ccc(C(=C2C=CC(=[N+](CC)CC)C=C2)c2ccc(S(=O)(=O)O)cc2S(=O)(=O)[O-])cc1
[8]
  AC50: inconclusive: 16.6 µM

## CCCCCCCC[Si](OCC)(OCC)OCC
[16]
  AC50: inconclusive: 1.97 µM
[10]
  AC50: inconclusive: 24.4 µM
[6]
  AC50: inconclusive: 30.9 µM
[13]
  AC50: inconclusive: 0.0002 µM
[14]
  AC50: inconclusive: 0.0002 µM

## O=C(Oc1ccccc1)c1ccccc1O
[14]
  outcome: inactive

## O=C(O)c1ccc(O)cc1
[1]
  AC50: inconclusive: 50 µM
[13]
  AC50: inconclusive: 0.0002 µM
[14]
  outcome: inactive

## CC(C)c1ccccc1O
[9]
  outcome: inactive
[2]
  AC50: inconclusive: 50 µM
[7]
  AC50: inconclusive: 0.0701 µM

## CC(C)(C)[C@@H](O)[C@@H](Cc1ccc(Cl)cc1)n1cncn1
[1]
  outcome: inactive
[2]
  outcome: inactive
[16]
  AC50: active: 36.1 µM
[3]
  AC50: inconclusive: 23.5 µM
[18]
  outcome: inactive
[7]
  AC50: active: 88.7 µM

## C#C[C@]1(O)CC[C@H]2[C@@H]3CCc4cc(O)ccc4[C@H]3CC[C@@]21C
[19]
  AC50: active: 15.6 µM
  outcome: inactive
[12]
  outcome: inactive
[13]
  AC50: active: 77.6 µM
[14]
  AC50: active: 93.7 µM
